Measurements from paper PMC12048721.
No constants are given. Whether binding was seen depends on the method and setting. Some entries that bind do so weakly or less than the wild type.

Target: T1, mature NAG-1/GDF15 (UniProt Q99988)
T1 sequence: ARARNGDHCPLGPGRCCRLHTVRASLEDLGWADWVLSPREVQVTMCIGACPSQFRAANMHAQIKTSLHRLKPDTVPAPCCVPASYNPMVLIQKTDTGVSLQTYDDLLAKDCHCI
Assay: phage display screening; purified mature NAG-1/GDF15 as bait; T7 human colon cDNA library (Novagen); NAG-1/GDF15-bound phages isolated and identified by PCR in E. coli; only the target purified

B1: EpCAM (261-314 aa), phage-displayed fragment (domain or fragment, UniProt P16422 261-314)
chain: MQGLKAGVIAVIVVVVIAVVAGIVVLVISRKKRMAKYEKAEIKEMGEMHRELNA
binding: binds
